# Measurements: the supplement of paper PMC8728848
# This is one part of the list.
# B1: Mermaid2 (Stilbonema majum) (protein)
# chain: MGSSHHHHHHSSGLVPRGSHMAASGWLRSPQGTVVKLYRRSLSWSKADEFCKDVDGRLVVDRTADMHLFLIKNVLKEKKSRVWVGLRRTAPHSRTWIWSDGTRQNEDDLNTNLWLRDEPNDAAGEEECALFMYSPWEKAWGLNDYLCRGGCRSYQFICEKGIR
# Assays:
# Assay in all cases: glycan array binding signal (z-score within array); higher = stronger binding
# Conditions in all cases: glycan notation: IUPAC condensed, linker removed
# [1] = target: Gal(b1-3)GlcNAc(b1-6)[Gal(b1-3)]GalNAc
# How it was run: (§1)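 Negative Z-scores can be read as non-binding. The Z-score is calculated within each array and then averaged across arrays of one protein sequence at different concentrations or buffers and across linkers. Arrays, 3228 in all, were curated from the Consortium for Functional Glycomics database and kept only where the protein sequence was available.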
# Gal(b1-3)GlcNAc6S = target: Gal(b1-3)GlcNAc6S
# How it was run: as §1
# [2] = target: Gal(b1-3)[Fuc(a1-4)]GlcNAc
# How it was run: as §1
# [3] = target: Gal(b1-3)[Fuc(a1-4)]GlcNAc(b1-2)Man
# How it was run: as §1
# [4] = target: Gal(b1-3)[Fuc(a1-4)]GlcNAc(b1-2)Man(a1-3)[Gal(b1-3)[Fuc(a1-4)]GlcNAc(b1-2)Man(a1-6)]Man(b1-4)GlcNAc(b1-4)[Fuc(a1-6)]GlcNAc
# How it was run: as §1
# [5] = target: Gal(b1-3)[Fuc(a1-4)]GlcNAc(b1-3)Gal(b1-3)[Fuc(a1-4)]GlcNAc
# How it was run: as §1
# [6] = target: Gal(b1-3)[Fuc(a1-4)]GlcNAc(b1-3)Gal(b1-4)[Fuc(a1-3)]GlcNAc
# How it was run: as §1
# [7] = target: Gal(b1-3)[Fuc(a1-4)]GlcNAc(b1-6)GalNAc
# How it was run: as §1
# [8] = target: Gal(b1-3)[GlcNAc(b1-6)]GalNAc
# How it was run: as §1
# [9] = target: Gal(b1-3)[Neu5Ac(a2-6)]GalNAc
# How it was run: as §1
# [10] = target: Gal(b1-3)[Neu5Ac(a2-6)]GlcNAc(b1-4)Gal(b1-4)Glc
# How it was run: as §1
# [11] = target: Gal(b1-3)[Neu5Ac(b2-6)]GalNAc
# How it was run: as §1
# Gal(b1-4)Gal = target: Gal(b1-4)Gal
# How it was run: as §1
# [12] = target: Gal(b1-4)GalNAc(a1-3)[Fuc(a1-2)]Gal(b1-4)GlcNAc
# How it was run: as §1
# [13] = target: Gal(b1-4)GalNAc(b1-3)[Fuc(a1-2)]Gal(b1-4)GlcNAc
# How it was run: as §1
# Gal(b1-4)Glc = target: Gal(b1-4)Glc
# How it was run: as §1
# Gal(b1-4)Glc6S = target: Gal(b1-4)Glc6S
# How it was run: as §1
# Gal(b1-4)GlcNAc = target: Gal(b1-4)GlcNAc
# How it was run: as §1
# [14] = target: Gal(b1-4)GlcNAc(a1-6)Gal(b1-4)GlcNAc
# How it was run: as §1
# Gal(b1-4)GlcNAc(b1-2)Man = target: Gal(b1-4)GlcNAc(b1-2)Man
# How it was run: as §1
# [15] = target: Gal(b1-4)GlcNAc(b1-2)Man(a1-3)Man(b1-4)GlcNAc(b1-4)GlcNAc
# How it was run: as §1
# [16] = target: Gal(b1-4)GlcNAc(b1-2)Man(a1-3)[Gal(b1-4)GlcNAc(b1-2)Man(a1-6)]Man(b1-4)GlcNAc(b1-4)GlcNAc
# How it was run: as §1
# [17] = target: Gal(b1-4)GlcNAc(b1-2)Man(a1-3)[Gal(b1-4)GlcNAc(b1-2)Man(a1-6)]Man(b1-4)GlcNAc(b1-4)[Fuc(a1-6)]GlcNAc
# How it was run: as §1
# [18] = target: Gal(b1-4)GlcNAc(b1-2)Man(a1-3)[Gal(b1-4)GlcNAc(b1-2)Man(a1-6)][Gal(b1-4)GlcNAc(b1-4)]Man(b1-4)GlcNAc(b1-4)[Fuc(a1-6)]GlcNAc
# How it was run: as §1
# [19] = target: Gal(b1-4)GlcNAc(b1-2)Man(a1-3)[Gal(b1-4)GlcNAc(b1-2)Man(a1-6)][GlcNAc(b1-4)]Man(b1-4)GlcNAc(b1-4)[Fuc(a1-6)]GlcNAc
# How it was run: as §1
# [20] = target: Gal(b1-4)GlcNAc(b1-2)Man(a1-3)[GlcNAc(b1-2)Man(a1-6)]Man(b1-4)GlcNAc(b1-4)GlcNAc
# How it was run: as §1
# [21] = target: Gal(b1-4)GlcNAc(b1-2)Man(a1-3)[GlcNAc(b1-4)][Gal(b1-4)GlcNAc(b1-2)Man(a1-6)]Man(b1-4)GlcNAc(b1-4)GlcNAc
# How it was run: as §1
# [22] = target: Gal(b1-4)GlcNAc(b1-2)Man(a1-3)[Man(a1-6)]Man(b1-4)GlcNAc(b1-4)GlcNAc
# How it was run: as §1
# [23] = target: Gal(b1-4)GlcNAc(b1-2)Man(a1-6)Man(b1-4)GlcNAc(b1-4)GlcNAc
# How it was run: as §1
# [24] = target: Gal(b1-4)GlcNAc(b1-2)Man(a1-6)[GlcNAc(b1-2)Man(a1-3)]Man(b1-4)GlcNAc(b1-4)GlcNAc
# How it was run: as §1
# [25] = target: Gal(b1-4)GlcNAc(b1-2)Man(a1-6)[Man(a1-3)]Man(b1-4)GlcNAc(b1-4)GlcNAc
# How it was run: as §1
# [26] = target: Gal(b1-4)GlcNAc(b1-2)[Gal(b1-4)GlcNAc(b1-4)]Man(a1-3)[Gal(b1-4)GlcNAc(b1-2)Man(a1-6)]Man(b1-4)GlcNAc(b1-4)GlcNAc
# How it was run: as §1
# [27] = target: Gal(b1-4)GlcNAc(b1-2)[Gal(b1-4)GlcNAc(b1-4)]Man(a1-3)[Gal(b1-4)GlcNAc(b1-2)[Gal(b1-4)GlcNAc(b1-6)]Man(a1-6)]Man(b1-4)GlcNAc(b1-4)GlcNAc
# How it was run: as §1
# [28] = target: Gal(b1-4)GlcNAc(b1-2)[Gal(b1-4)GlcNAc(b1-4)]Man(a1-3)[GlcNAc(b1-4)][Gal(b1-4)GlcNAc(b1-2)Man(a1-6)]Man(b1-4)GlcNAc(b1-4)GlcNAc
# How it was run: as §1
# [29] = target: Gal(b1-4)GlcNAc(b1-2)[Gal(b1-4)GlcNAc(b1-4)]Man(a1-3)[GlcNAc(b1-4)][Gal(b1-4)GlcNAc(b1-2)[Gal(b1-4)GlcNAc(b1-6)]Man(a1-6)]Man(b1-4)GlcNAc(b1-4)GlcNAc
# How it was run: as §1
# [30] = target: Gal(b1-4)GlcNAc(b1-2)[Gal(b1-4)GlcNAc(b1-6)]Man(a1-6)[Gal(b1-4)GlcNAc(b1-2)Man(a1-3)]Man(b1-4)GlcNAc(b1-4)GlcNAc
# How it was run: as §1
# [31] = target: Gal(b1-4)GlcNAc(b1-2)[Gal(b1-4)GlcNAc(b1-6)]Man(a1-6)[Gal(b1-4)GlcNAc(b1-2)Man(a1-3)]Man(b1-4)GlcNAc(b1-4)[Fuc(a1-6)]GlcNAc
# How it was run: as §1
# [32] = target: Gal(b1-4)GlcNAc(b1-2)[Gal(b1-4)GlcNAc(b1-6)]Man(a1-6)[GlcNAc(b1-4)][Gal(b1-4)GlcNAc(b1-2)Man(a1-3)]Man(b1-4)GlcNAc(b1-4)GlcNAc
# How it was run: as §1
# [33] = target: Gal(b1-4)GlcNAc(b1-2)[Gal(b1-4)GlcNAc(b1-6)]Man(a1-6)[GlcNAc(b1-4)][Gal(b1-4)GlcNAc(b1-2)[Gal(b1-4)GlcNAc(b1-4)]Man(a1-3)]Man(b1-4)GlcNAc(b1-4)[Fuc(a1-6)]GlcNAc
# How it was run: as §1
# [34] = target: Gal(b1-4)GlcNAc(b1-3)Gal(b1-3)GalNAc
# How it was run: as §1
# [35] = target: Gal(b1-4)GlcNAc(b1-3)Gal(b1-3)GlcNAc
# How it was run: as §1
# [36] = target: Gal(b1-4)GlcNAc(b1-3)Gal(b1-4)Glc
# How it was run: as §1
# [37] = target: Gal(b1-4)GlcNAc(b1-3)Gal(b1-4)GlcNAc
# How it was run: as §1
# [38] = target: Gal(b1-4)GlcNAc(b1-3)Gal(b1-4)GlcNAc(b1-2)Man(a1-3)[Gal(b1-4)GlcNAc(b1-3)Gal(b1-4)GlcNAc(b1-2)Man(a1-6)]Man(b1-4)GlcNAc(b1-4)GlcNAc
# How it was run: as §1
# [39] = target: Gal(b1-4)GlcNAc(b1-3)Gal(b1-4)GlcNAc(b1-2)Man(a1-3)[Gal(b1-4)GlcNAc(b1-3)Gal(b1-4)GlcNAc(b1-2)Man(a1-6)]Man(b1-4)GlcNAc(b1-4)[Fuc(a1-6)]GlcNAc
# How it was run: as §1
binder,measurement,setting,value
B1,glycan array binding signal (z-score),[1],0.736
same,glycan array binding signal (z-score),Gal(b1-3)GlcNAc6S,-0.149
same,glycan array binding signal (z-score),[2],-0.238
same,glycan array binding signal (z-score),[3],0.139
same,glycan array binding signal (z-score),[4],1.91
same,glycan array binding signal (z-score),[5],-0.667
same,glycan array binding signal (z-score),[6],-0.152
same,glycan array binding signal (z-score),[7],0.486
same,glycan array binding signal (z-score),[8],-0.348
same,glycan array binding signal (z-score),[9],-0.813
same,glycan array binding signal (z-score),[10],-0.72
same,glycan array binding signal (z-score),[11],-0.862
same,glycan array binding signal (z-score),Gal(b1-4)Gal,6.71
same,glycan array binding signal (z-score),[12],1.1
same,glycan array binding signal (z-score),[13],0.467
same,glycan array binding signal (z-score),Gal(b1-4)Glc,-0.205
same,glycan array binding signal (z-score),Gal(b1-4)Glc6S,-0.674
same,glycan array binding signal (z-score),Gal(b1-4)GlcNAc,-0.205
same,glycan array binding signal (z-score),[14],-0.513
same,glycan array binding signal (z-score),Gal(b1-4)GlcNAc(b1-2)Man,1.07
same,glycan array binding signal (z-score),[15],-0.333
same,glycan array binding signal (z-score),[16],-0.337
same,glycan array binding signal (z-score),[17],0.911
same,glycan array binding signal (z-score),[18],-0.652
same,glycan array binding signal (z-score),[19],-0.76
same,glycan array binding signal (z-score),[20],-0.185
same,glycan array binding signal (z-score),[21],-0.474
same,glycan array binding signal (z-score),[22],3.75
same,glycan array binding signal (z-score),[23],-0.175
same,glycan array binding signal (z-score),[24],-0.018
same,glycan array binding signal (z-score),[25],-0.57
same,glycan array binding signal (z-score),[26],0.034
same,glycan array binding signal (z-score),[27],-0.59
same,glycan array binding signal (z-score),[28],-0.22
same,glycan array binding signal (z-score),[29],-0.17
same,glycan array binding signal (z-score),[30],-0.272
same,glycan array binding signal (z-score),[31],-0.326
same,glycan array binding signal (z-score),[32],-0.237
same,glycan array binding signal (z-score),[33],-0.723
same,glycan array binding signal (z-score),[34],0.04
same,glycan array binding signal (z-score),[35],-0.634
same,glycan array binding signal (z-score),[36],-0.068
same,glycan array binding signal (z-score),[37],-0.047
same,glycan array binding signal (z-score),[38],-0.21
same,glycan array binding signal (z-score),[39],-0.278

# In another format: entries from further up.
binder	measurement	setting	value
B1	glycan array binding signal (z-score)	[9]	-0.813
same	glycan array binding signal (z-score)	[10]	-0.72
